Measured data: PubChem BioAssay AID743121 (NCATS, 2013)

Test: 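Partners whose loss is lethal together with topoisomerase I blockade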 (primary screen)
Cell system: MDA-MB-231 cells, a human breast cancer line
Reagent: single siRNA against human genes, 20 nM siRNA (0.8 pmol per well)
Duration: 120 h (drug added 48 h after transfection, read 72 h later)
Treatment: camptothecin 20 nM (about EC30) for 72 h; vehicle 0.1% DMSO in parallel plates
Detection: 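CellTiter-Glo ATP signal, scaled to control siRNA as percent viability; sensitisation given as log2 of untreated divided by camptothecin-treated viability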
Scale: log2 vehicle/camptothecin viability: higher = stronger sensitisation to camptothecin
Rule for the call: 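Each gene scored by redundant siRNA activity (RSA) over its individual siRNA ratios; a gene is called active at p < 0.001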
Shown is one part, drawn at random, of about 26,000 reagents tested. 167 of them (0.63%) count as active. 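Calls are per gene from RSA p-values that are not deposited; an individual active-marked siRNA can sensitise only weakly.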 The numbers tell different reagents against one gene apart. Further read-outs or replicates are left out here.

| gene | reagent | log2 vehicle/camptothecin viability | Outcome |
| --- | --- | --- | --- |
| MED7 (mediator complex subunit 7) | 1 | 0.209 | inactive |
| MED7 (mediator complex subunit 7) | 2 | -0.392 | inactive |
| MED7 (mediator complex subunit 7) | 3 | -0.188 | inactive |
| MED7 (mediator complex subunit 7) | 4 | -0.0367 | inactive |
| USP34 (ubiquitin specific peptidase 34) | 1 | -0.273 | inactive |
| USP34 (ubiquitin specific peptidase 34) | 2 | -0.0364 | inactive |
| USP34 (ubiquitin specific peptidase 34) | 3 | 0.632 | inactive |
| USP34 (ubiquitin specific peptidase 34) | 4 | 0.0569 | inactive |
| DOK1 (docking protein 1) | 1 | -0.289 | inactive |
| DOK1 (docking protein 1) | 2 | -0.22 | inactive |
| DOK1 (docking protein 1) | 3 | -0.078 | inactive |
| DOK1 (docking protein 1) | 4 | -0.511 | inactive |
| UBFD1 (ubiquitin family domain containing 1) | 1 | -0.0251 | inactive |
| UBFD1 (ubiquitin family domain containing 1) | 2 | 0.466 | inactive |
| UBFD1 (ubiquitin family domain containing 1) | 3 | -0.142 | inactive |
| ATP2B1 (ATPase plasma membrane Ca2+ transporting 1) | 1 | -0.203 | inactive |
| ATP2B1 (ATPase plasma membrane Ca2+ transporting 1) | 2 | 0.12 | inactive |
| ATP2B1 (ATPase plasma membrane Ca2+ transporting 1) | 3 | -0.313 | inactive |
| ATP2B1 (ATPase plasma membrane Ca2+ transporting 1) | 4 | 0.236 | inactive |
| RSF1 (remodeling and spacing factor 1) | 1 | -0.28 | inactive |
| RSF1 (remodeling and spacing factor 1) | 2 | -0.361 | inactive |
| RSF1 (remodeling and spacing factor 1) | 3 | -0.133 | inactive |
| RSF1 (remodeling and spacing factor 1) | 4 | 0.484 | inactive |
| CHD1 (chromodomain helicase DNA binding protein 1) | 1 | 0.0175 | inactive |
| CHD1 (chromodomain helicase DNA binding protein 1) | 2 | -0.122 | inactive |
| CHD1 (chromodomain helicase DNA binding protein 1) | 3 | -0.21 | inactive |
| CHD1 (chromodomain helicase DNA binding protein 1) | 4 | -0.413 | inactive |
| LASP1 (LIM and SH3 protein 1) | 1 | -0.0541 | inactive |
| LASP1 (LIM and SH3 protein 1) | 2 | -0.168 | inactive |
| LASP1 (LIM and SH3 protein 1) | 3 | -0.0432 | inactive |
| LASP1 (LIM and SH3 protein 1) | 4 | -0.581 | inactive |
| SFN (stratifin) | 1 | -0.31 | inactive |
| SFN (stratifin) | 2 | -0.216 | inactive |
| SFN (stratifin) | 3 | -0.609 | inactive |
| SFN (stratifin) | 4 | 0.333 | inactive |
| MARCKS (myristoylated alanine rich protein kinase C substrate) | 1 | 0.483 | inactive |
| MARCKS (myristoylated alanine rich protein kinase C substrate) | 2 | 0.25 | inactive |
| MARCKS (myristoylated alanine rich protein kinase C substrate) | 3 | -0.359 | inactive |
| MARCKS (myristoylated alanine rich protein kinase C substrate) | 4 | 0.223 | inactive |
| UQCRC1 (ubiquinol-cytochrome c reductase core protein 1) | 1 | -0.146 | inactive |
| UQCRC1 (ubiquinol-cytochrome c reductase core protein 1) | 2 | 0.0868 | inactive |
| UQCRC1 (ubiquinol-cytochrome c reductase core protein 1) | 3 | -0.523 | inactive |
| UQCRC1 (ubiquinol-cytochrome c reductase core protein 1) | 4 | -0.663 | inactive |
| GLRA1 (glycine receptor alpha 1) | 1 | -0.17 | inactive |
| GLRA1 (glycine receptor alpha 1) | 2 | -0.325 | inactive |
| GLRA1 (glycine receptor alpha 1) | 3 | -0.299 | inactive |
| GLRA1 (glycine receptor alpha 1) | 4 | 0.0594 | inactive |
| KCNT2 (potassium sodium-activated channel subfamily T member 2) | 1 | -0.101 | inactive |
| KCNT2 (potassium sodium-activated channel subfamily T member 2) | 2 | -0.382 | inactive |
| KCNT2 (potassium sodium-activated channel subfamily T member 2) | 3 | -0.166 | inactive |
| KCNT2 (potassium sodium-activated channel subfamily T member 2) | 4 | -0.385 | inactive |
| CTSE (cathepsin E) | 1 | 0.0728 | inactive |
| CTSE (cathepsin E) | 2 | -0.029 | inactive |
| CTSE (cathepsin E) | 3 | -0.407 | inactive |
| CTSE (cathepsin E) | 4 | -0.307 | inactive |
| GEM (GTP binding protein overexpressed in skeletal muscle) | 1 | -0.0861 | inactive |
| GEM (GTP binding protein overexpressed in skeletal muscle) | 2 | -0.54 | inactive |
| GEM (GTP binding protein overexpressed in skeletal muscle) | 3 | 0.313 | inactive |
| GEM (GTP binding protein overexpressed in skeletal muscle) | 4 | 0.065 | inactive |
| RNF19A (ring finger protein 19A, RBR E3 ubiquitin protein ligase) | 1 | -0.284 | inactive |
| RNF19A (ring finger protein 19A, RBR E3 ubiquitin protein ligase) | 2 | -0.636 | inactive |
| RNF19A (ring finger protein 19A, RBR E3 ubiquitin protein ligase) | 3 | -0.057 | inactive |
| RNF19A (ring finger protein 19A, RBR E3 ubiquitin protein ligase) | 4 | 1.06 | inactive |
| TKT (transketolase) | 1 | -0.0108 | inactive |
| TKT (transketolase) | 2 | -0.0446 | inactive |
| TKT (transketolase) | 3 | -0.0383 | inactive |
| CDK7 (cyclin dependent kinase 7) | 1 | 0.0616 | inactive |
| CDK7 (cyclin dependent kinase 7) | 2 | 1.78 | inactive |
| CDK7 (cyclin dependent kinase 7) | 3 | 0.104 | inactive |
| CDK7 (cyclin dependent kinase 7) | 4 | -0.0624 | inactive |
| YWHAE | 1 | 0.0849 | inactive |
| YWHAE | 2 | -0.311 | inactive |
| YWHAE | 3 | -0.0133 | inactive |
| YWHAE | 4 | -0.176 | inactive |
| YWHAE | 5 | -0.241 | inactive |
| DPP8 (dipeptidyl peptidase 8) | 1 | -0.428 | inactive |
| DPP8 (dipeptidyl peptidase 8) | 2 | -0.103 | inactive |
| DPP8 (dipeptidyl peptidase 8) | 3 | -0.144 | inactive |
| DPP8 (dipeptidyl peptidase 8) | 4 | -0.102 | inactive |
| MGAT1 | 1 | -0.268 | inactive |
| MGAT1 | 2 | -0.41 | inactive |
| MGAT1 | 3 | -0.204 | inactive |
| LYZ (lysozyme) | 1 | -0.501 | inactive |
| LYZ (lysozyme) | 2 | -0.362 | inactive |
| LYZ (lysozyme) | 3 | 0.5 | inactive |
| LYZ (lysozyme) | 4 | -0.0762 | inactive |
| CNGB1 (cyclic nucleotide gated channel subunit beta 1) | 1 | -0.186 | inactive |
| CNGB1 (cyclic nucleotide gated channel subunit beta 1) | 2 | 0.255 | inactive |
| CNGB1 (cyclic nucleotide gated channel subunit beta 1) | 3 | -0.592 | inactive |
| CNGB1 (cyclic nucleotide gated channel subunit beta 1) | 4 | 0.0819 | inactive |
